# Assay results from US8193225B2, “Isoxazole amides, derivatives and methods of chemical induction of neurogenesis” (priority 2006, dated 2012).
# At least one structure is not confirmed: it was looked up by name or label, or the drawing left a doubt.
# What was measured:
# Format in all cases: cell-based, rat
# NFAT-luc = NFAT-luc reporter assay in NPCs; conditions: 1.25-20 μM inhibitor
# MCIP-luc = MCIP-luc reporter assay in NPCs; conditions: 1.25-20 μM inhibitor
# [1] = system: MEF2 reporter gene (3XMRE-luc); assay: MEF2 reporter gene (3XMRE-luc) assay in HCN cells; conditions: NPCs
smiles,measurement,setting,value
C=CC[C@@H]1/C=C(\C)C[C@H](C)C[C@H](OC)[C@H]2O[C@@](O)(C(=O)C(=O)N3CCCC[C@H]3C(=O)O[C@H](/C(C)=C/[C@@H]3CC[C@@H](O)[C@H](OC)C3)[C@H](C)[C@@H](O)CC1=O)[C@H](C)C[C@@H]2OC [FK506],effect of calcineurin inhibitor on Isx activation of NFAT,NFAT-luc,blocked Isx activation in a dose-dependent manner
same,effect of calcineurin inhibitor on Isx activation of MCIP,MCIP-luc,blocked Isx activation in a dose-dependent manner
same,effect of calcineurin inhibitor on Isx induction of MEF2 promoter,[1],blocked
